Data as given in article PMC2824753.
Like-named read-outs stand apart in the source and are kept apart here. No constants are given. Whether binding was seen depends on the method and setting. For part of these data: In cells and extracts the contact can be indirect. Some results given as binding are weak or reduced against the parent protein; the word gives no strength. Tags and fused reporters may be left off the sequences shown. Each block holds one molecule with its values, some of them ahead of it.

Chains of the proteins cited; added tags and fusions are not shown.
UniProt P27705: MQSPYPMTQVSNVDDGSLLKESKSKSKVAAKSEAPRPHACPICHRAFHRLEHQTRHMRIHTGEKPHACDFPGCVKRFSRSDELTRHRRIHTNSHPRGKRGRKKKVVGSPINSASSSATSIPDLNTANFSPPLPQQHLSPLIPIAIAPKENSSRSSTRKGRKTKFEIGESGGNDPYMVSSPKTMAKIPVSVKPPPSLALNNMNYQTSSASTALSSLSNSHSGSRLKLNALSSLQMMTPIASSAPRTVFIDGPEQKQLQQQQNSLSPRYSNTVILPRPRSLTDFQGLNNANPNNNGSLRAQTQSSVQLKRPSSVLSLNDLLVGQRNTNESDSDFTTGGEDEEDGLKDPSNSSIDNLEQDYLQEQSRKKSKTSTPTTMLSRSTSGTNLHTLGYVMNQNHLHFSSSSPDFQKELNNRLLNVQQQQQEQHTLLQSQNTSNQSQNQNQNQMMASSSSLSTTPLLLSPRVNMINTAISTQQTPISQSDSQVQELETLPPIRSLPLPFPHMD

Columns and labels:
[1] = molecular target: T1, Gal4p-Mms22p-DNA binding domain fusion protein (S. cerevisiae) (UniProt Q06164); assay: two-hybrid; Gal4 DNA-binding domain-Mms22 bait (pOBD2) against genome-wide array of pOAD fusions; each screen in duplicate, positives identified twice retested in a mini-array
T1 sequence: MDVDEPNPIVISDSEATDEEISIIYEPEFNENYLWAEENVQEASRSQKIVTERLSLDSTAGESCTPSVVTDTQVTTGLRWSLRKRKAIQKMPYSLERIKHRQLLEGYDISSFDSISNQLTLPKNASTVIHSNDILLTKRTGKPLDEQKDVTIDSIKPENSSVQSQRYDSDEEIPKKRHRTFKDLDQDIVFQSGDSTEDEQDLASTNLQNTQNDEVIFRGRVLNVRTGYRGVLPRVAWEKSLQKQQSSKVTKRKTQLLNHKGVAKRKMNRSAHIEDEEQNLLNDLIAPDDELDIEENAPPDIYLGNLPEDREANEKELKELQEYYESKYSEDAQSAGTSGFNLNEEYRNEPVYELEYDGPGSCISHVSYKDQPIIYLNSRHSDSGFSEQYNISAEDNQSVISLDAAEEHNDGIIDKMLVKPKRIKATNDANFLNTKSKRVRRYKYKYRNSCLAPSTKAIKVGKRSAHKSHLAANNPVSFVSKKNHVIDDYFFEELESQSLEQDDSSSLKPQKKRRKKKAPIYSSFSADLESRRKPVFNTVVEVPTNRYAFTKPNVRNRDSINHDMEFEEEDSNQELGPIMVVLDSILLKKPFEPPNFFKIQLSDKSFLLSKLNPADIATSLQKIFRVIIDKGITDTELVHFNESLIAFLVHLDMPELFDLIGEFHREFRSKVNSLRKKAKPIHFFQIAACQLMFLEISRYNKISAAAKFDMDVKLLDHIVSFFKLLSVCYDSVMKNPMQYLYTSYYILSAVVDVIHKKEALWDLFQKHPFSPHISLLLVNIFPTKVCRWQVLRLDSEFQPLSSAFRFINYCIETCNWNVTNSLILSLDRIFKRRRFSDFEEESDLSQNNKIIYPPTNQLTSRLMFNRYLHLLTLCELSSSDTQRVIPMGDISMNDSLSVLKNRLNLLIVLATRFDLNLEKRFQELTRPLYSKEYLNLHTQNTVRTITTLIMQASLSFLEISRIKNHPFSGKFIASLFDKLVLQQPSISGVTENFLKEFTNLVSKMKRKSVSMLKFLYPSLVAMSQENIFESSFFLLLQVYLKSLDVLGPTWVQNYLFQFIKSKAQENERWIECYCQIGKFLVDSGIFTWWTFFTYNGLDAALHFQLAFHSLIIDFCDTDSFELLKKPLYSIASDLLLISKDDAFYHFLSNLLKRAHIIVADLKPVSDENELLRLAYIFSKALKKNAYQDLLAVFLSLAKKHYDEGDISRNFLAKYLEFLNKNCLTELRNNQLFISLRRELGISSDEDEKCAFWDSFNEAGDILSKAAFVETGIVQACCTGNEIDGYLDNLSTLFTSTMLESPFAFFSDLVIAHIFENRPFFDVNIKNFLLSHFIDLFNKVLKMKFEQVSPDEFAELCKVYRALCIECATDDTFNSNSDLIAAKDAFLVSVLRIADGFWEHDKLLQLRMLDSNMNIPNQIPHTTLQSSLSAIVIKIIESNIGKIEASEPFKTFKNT

[2] = molecular target: T1, Gal4p-Mms22p-DNA binding domain fusion protein (S. cerevisiae); assay: as above; remark: listed apart in the source
[3] = molecular target: T2, Mms22-13Myc (S. cerevisiae) (UniProt Q06164); assay: co-IP; whole cell extracts of the doubly tagged Mms22-13Myc/Rtt101-3HA haploid strain; IP with anti-Myc antibody, immunoblotting with anti-Myc and anti-HA; singly tagged Mms22-13Myc strain as control
T2 sequence: T1 sequence

binding [1]: no binding
Molecule: MIG1 (pOAD fusion protein) (from UniProt P27705 1-504)

binding [2]: binds
B1: Rtt101/Cul8 (pOAD fusion protein) (protein, UniProt P47050 1-842)
chain: MINESVSKREGFHESISRETSASNALGLYNKFNDERNPRYRTMIAELHEFFHLTLAETITETDVKELECNKEKAAKFRKLMPKMLNNCRELTQRKSYIPYNSEFNGNDEKQKKFQLLHQHQIVLSFQEFCDELAKLIIDAHVLSFLTRCDYSYEIIPKNWTSFYKLFQYVMGAVGPIISYVPVNYPMIRKELGFETLTIFQYYDSKLFECMKSHFGREFSTLVSATIHHYIHMFPITNTMLEKEVPMLRIMSNCNFSIEGLSPKDFYMKTLRQYYCEESNLRPRLETFKNFKVLLTRNALLASLFSPEWVSDANDLFISHLLLNKKSISEYIEIGKDTYDEEKERYFKTETHFSLLMFRNAFEAKNMLSKFKEFCDDAVSEKLKAAYGSNHDTERLFDEVVQLANVDHLKIYSDSIEYHLCNLLGSTSKAIEQYVKYFESHLFIIVRKIKTTKKDLPRDMKIKYLNENLPILRLKFVNLPTFPNFFERSIFRKTILQSDQNSSFIKDILPVYKDSLMELFKQRIITNVSQEDEMRYRDQYQPYLSQFFQPVEVMADLRIKYASFLSFYENIEAAVKFGKTYNENNSKSFFPLIFDRERIPKVFQQSNEVKKNFVLPQEMDDTWNQFLRNYHEQNKVEDSDASKKELYPMWNLHHCEVESPYIIQDGTNLIFELTLFQTCVLTLFNESDHLTLQVISEQTKLAYKDLALVLKSFCNYKILTRDIDNTYSINESFKPDMKKVKNGKLRVVLPRTASLQSSNTGGERTSSAHHEGSNSQWTQELLKACITRSVKSERNGLDYDHLFETVKQQIKGFSVGEFKDALAKLLRDKFITRDESTATYKY

binding [3]: binds
B2: Rtt101-3HA (protein, UniProt P47050 1-842)
chain: B1 chain
